Measurements from the supplement of paper PMC6411743.
± gives the standard deviation of the averaged measurements. This is a selection; strong and weak results do not stand in their true shares. Small differences around the control level are noise.

Amino acid sequences for entries named in this document (tags omitted). A change or cut given only in a name is not applied to a line headed by its entry.
UniProt Q7Z460: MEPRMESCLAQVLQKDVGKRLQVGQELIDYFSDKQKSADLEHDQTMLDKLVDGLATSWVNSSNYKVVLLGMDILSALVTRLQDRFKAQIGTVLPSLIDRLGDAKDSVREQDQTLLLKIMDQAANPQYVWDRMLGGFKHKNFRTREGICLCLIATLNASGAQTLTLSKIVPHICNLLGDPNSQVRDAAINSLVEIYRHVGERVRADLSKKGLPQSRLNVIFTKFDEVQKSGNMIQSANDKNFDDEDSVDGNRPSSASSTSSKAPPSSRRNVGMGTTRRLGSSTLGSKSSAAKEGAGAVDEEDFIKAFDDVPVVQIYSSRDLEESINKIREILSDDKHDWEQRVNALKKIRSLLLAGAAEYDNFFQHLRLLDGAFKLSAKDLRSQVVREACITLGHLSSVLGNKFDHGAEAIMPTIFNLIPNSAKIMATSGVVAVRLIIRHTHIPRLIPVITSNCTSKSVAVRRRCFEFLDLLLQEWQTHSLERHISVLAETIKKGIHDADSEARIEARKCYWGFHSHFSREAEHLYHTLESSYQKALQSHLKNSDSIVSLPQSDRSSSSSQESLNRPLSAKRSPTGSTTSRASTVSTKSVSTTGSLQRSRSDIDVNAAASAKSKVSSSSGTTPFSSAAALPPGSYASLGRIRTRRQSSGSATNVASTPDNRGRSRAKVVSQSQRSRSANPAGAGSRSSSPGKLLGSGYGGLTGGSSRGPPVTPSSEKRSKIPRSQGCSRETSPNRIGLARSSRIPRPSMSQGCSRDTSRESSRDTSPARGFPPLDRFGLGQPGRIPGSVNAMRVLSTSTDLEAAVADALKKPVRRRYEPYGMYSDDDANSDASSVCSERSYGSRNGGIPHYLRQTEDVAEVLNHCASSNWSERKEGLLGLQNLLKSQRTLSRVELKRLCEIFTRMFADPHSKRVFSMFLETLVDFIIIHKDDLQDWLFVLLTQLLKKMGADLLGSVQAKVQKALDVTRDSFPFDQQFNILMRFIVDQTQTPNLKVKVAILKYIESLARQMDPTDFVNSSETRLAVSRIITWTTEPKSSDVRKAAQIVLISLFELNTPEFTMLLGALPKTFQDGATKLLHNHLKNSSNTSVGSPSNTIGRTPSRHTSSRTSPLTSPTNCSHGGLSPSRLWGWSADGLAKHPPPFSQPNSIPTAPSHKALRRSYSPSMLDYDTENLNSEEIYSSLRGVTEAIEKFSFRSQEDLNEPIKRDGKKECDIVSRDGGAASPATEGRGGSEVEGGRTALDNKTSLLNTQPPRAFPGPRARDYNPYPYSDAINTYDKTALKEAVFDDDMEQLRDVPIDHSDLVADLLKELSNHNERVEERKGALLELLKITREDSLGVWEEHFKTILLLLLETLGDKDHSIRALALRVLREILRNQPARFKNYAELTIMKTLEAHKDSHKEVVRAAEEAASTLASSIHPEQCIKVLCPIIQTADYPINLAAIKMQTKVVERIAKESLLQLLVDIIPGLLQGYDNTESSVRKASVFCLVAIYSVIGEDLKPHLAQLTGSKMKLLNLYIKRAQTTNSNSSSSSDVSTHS
UniProt Q6ZW49, whole entry: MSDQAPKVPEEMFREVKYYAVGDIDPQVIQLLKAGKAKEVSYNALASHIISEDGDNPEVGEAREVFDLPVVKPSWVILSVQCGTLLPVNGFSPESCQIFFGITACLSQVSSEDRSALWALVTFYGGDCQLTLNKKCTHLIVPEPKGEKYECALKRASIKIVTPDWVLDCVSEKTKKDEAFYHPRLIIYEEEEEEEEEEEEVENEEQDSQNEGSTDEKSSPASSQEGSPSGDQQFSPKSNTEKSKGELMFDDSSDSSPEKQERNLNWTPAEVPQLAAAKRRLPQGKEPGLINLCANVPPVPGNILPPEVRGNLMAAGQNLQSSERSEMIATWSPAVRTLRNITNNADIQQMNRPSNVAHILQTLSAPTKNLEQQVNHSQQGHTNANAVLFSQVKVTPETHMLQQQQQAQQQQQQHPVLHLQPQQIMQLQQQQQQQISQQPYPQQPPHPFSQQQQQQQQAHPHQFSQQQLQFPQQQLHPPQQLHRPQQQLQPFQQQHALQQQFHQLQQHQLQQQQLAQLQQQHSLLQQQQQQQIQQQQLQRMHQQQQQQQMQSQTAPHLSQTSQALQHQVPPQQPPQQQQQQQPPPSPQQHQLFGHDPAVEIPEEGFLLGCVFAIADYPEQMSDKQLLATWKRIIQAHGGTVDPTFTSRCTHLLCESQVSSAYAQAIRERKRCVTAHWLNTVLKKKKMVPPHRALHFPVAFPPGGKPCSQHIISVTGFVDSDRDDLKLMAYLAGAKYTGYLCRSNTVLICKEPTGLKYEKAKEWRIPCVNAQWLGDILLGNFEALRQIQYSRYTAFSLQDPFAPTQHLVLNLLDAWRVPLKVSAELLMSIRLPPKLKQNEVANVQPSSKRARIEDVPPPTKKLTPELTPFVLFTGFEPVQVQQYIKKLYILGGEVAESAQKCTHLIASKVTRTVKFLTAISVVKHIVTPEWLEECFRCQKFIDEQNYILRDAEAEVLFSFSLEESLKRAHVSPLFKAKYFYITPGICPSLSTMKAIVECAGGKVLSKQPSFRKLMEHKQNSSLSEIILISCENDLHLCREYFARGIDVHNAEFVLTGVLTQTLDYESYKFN
UniProt Q6P1N0: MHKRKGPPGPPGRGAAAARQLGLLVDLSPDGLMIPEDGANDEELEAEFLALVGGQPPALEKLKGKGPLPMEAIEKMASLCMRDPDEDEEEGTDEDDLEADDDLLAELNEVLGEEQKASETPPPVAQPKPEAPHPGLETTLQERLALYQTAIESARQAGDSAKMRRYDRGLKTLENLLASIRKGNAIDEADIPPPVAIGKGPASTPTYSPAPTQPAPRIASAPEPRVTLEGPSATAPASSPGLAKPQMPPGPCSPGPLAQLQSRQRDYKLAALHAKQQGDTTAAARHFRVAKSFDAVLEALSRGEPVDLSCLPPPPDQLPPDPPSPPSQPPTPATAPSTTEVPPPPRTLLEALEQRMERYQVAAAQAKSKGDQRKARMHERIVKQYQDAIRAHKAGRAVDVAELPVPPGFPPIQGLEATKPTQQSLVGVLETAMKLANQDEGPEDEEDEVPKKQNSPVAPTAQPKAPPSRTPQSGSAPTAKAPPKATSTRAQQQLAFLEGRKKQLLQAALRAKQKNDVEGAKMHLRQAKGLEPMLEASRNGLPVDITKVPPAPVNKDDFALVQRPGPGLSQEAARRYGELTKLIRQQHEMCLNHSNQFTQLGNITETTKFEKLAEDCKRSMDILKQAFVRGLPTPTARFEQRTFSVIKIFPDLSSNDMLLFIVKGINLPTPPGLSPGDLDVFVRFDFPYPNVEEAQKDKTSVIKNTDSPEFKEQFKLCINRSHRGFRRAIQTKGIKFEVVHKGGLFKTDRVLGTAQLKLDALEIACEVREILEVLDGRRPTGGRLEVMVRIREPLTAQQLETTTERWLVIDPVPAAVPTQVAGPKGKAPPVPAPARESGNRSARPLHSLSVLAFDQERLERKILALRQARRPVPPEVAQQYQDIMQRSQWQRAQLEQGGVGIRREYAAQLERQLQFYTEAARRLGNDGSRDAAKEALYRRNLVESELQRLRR
UniProt Q6P4F2: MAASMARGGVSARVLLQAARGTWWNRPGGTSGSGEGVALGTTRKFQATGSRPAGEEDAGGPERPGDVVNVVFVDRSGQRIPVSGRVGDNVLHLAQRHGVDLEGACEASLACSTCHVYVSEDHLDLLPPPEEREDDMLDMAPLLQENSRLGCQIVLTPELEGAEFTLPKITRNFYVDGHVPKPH
UniProt Q7Z412: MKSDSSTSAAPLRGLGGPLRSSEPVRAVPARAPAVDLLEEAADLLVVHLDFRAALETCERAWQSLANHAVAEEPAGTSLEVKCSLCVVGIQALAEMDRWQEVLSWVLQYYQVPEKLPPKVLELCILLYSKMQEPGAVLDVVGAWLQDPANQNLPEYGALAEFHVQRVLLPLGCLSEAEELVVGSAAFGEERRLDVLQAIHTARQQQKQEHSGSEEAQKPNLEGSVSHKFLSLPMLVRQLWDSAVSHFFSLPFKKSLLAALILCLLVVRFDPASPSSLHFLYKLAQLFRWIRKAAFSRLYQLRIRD
UniProt Q6P4R8, whole entry: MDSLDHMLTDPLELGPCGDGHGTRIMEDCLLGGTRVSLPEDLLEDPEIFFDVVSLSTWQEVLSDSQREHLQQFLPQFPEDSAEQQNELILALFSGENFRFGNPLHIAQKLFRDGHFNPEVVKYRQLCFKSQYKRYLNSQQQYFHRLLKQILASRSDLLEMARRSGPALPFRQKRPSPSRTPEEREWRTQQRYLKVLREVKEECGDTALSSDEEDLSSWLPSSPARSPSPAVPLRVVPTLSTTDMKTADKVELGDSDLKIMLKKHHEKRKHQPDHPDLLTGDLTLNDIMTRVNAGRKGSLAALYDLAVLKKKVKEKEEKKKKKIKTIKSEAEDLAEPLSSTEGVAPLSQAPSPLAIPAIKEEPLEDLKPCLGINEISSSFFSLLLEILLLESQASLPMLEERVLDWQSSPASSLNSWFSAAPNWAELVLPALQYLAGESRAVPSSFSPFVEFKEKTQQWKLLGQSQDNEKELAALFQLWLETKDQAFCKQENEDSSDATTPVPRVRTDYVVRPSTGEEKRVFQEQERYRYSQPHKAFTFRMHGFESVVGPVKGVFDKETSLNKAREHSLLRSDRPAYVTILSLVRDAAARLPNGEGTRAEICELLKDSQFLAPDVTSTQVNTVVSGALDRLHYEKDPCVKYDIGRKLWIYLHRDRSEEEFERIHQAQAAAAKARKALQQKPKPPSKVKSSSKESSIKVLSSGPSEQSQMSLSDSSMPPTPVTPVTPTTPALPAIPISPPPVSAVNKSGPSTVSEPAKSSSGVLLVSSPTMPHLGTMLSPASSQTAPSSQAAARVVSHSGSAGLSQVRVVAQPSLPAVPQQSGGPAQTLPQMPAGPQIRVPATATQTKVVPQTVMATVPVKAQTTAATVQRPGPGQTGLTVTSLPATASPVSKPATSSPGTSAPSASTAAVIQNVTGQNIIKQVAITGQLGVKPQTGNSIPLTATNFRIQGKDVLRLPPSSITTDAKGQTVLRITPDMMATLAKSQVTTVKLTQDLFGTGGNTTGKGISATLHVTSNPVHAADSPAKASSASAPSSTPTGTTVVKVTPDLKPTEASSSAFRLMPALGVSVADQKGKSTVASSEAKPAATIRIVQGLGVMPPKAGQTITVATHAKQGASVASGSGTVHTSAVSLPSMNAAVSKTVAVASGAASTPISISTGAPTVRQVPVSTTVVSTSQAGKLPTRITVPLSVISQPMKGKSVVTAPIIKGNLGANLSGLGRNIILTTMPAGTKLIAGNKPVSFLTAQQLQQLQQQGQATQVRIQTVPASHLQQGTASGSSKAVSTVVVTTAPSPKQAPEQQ
UniProt Q7L576: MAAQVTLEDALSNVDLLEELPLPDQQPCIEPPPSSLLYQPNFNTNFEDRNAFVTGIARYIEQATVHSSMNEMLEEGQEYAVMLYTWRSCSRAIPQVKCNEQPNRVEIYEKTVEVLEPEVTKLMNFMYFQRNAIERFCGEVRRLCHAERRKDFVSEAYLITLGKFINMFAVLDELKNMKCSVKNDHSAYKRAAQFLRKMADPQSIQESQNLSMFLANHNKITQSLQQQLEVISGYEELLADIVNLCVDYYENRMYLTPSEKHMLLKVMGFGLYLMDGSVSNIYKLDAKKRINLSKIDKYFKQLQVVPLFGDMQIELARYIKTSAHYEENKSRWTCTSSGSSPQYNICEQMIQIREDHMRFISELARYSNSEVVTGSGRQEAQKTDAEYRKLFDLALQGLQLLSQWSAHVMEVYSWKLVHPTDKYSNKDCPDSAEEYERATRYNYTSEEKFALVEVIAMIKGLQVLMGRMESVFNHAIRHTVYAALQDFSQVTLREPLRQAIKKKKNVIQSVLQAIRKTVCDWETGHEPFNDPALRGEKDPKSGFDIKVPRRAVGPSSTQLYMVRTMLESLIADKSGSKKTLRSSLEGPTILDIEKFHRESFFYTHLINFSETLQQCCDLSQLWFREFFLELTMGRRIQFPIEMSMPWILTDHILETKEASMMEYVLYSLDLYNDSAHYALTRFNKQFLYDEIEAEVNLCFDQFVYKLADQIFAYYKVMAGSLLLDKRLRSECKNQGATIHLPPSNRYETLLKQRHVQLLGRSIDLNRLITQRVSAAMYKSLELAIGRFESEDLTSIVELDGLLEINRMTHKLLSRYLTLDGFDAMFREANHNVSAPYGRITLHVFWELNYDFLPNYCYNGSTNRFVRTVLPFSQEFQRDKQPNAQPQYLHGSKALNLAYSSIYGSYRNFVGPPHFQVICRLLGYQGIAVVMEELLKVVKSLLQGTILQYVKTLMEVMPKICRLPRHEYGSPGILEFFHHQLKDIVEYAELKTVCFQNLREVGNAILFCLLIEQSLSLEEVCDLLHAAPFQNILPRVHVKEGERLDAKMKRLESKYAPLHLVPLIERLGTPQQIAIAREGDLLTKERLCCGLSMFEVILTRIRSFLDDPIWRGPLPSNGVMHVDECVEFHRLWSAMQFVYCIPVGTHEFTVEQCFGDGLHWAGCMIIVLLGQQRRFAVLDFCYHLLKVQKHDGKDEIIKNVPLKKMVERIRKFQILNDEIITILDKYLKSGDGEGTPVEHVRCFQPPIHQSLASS

Compound: Nc1ncnc2c1ncn2[C@@H]1O[C@H](COP(=O)(O)OP(=O)(O)NP(=O)(O)O)[C@@H](O)[C@H]1O [adenylyl imidodiphosphate]
Test: NP40-soluble protein abundance relative to vehicle (solubility fold change) (ratio); higher = more soluble protein in presence of AMP-PNP
How it was run: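 In three independent experiments, Jurkat crude lysate made by Dounce homogenisation was treated for 10 min at room temperature and then 3 min at 37 °C with eight concentrations ranging from 0.1 to 10 mM. It was then solubilised with 0.8% NP40 plus benzonase for 60 min at 4 °C and ultracentrifuged. The supernatant was TMT-labelled for LC-MS/MS, and each value is the fold change against the detergent-processed vehicle for the same replicate, using vsn-normalised intensities.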

Target	NP40-soluble protein abundance (concentration: 0.1mM)	NP40-soluble protein abundance (concentration: 0.5mM)
UniProt Q641Q2 and related entries	1.008 ± 0.0072	1.04 ± 0.088
UniProt Q7Z6B0 and related entries	0.997 ± 0.012	1.02 ± 0.073
RCSD1 (UniProt Q6JBY9)	0.972 ± 0.048	0.971 ± 0.027
TTC33 (UniProt Q6PID6)	0.97 ± 0.024	1 ± 0.007
UniProt Q6XQN6 and related entries	0.975 ± 0.027	0.977 ± 0.019
TAF2 (UniProt Q6P1X5)	1 ± 0.018	0.978 ± 0.038
UniProt Q6QNY1 and related entries	0.988 ± 0.034	0.984 ± 0.031
UniProt Q7Z460 and related entries	0.988 ± 0.012	0.997 ± 0.042
CWF19L1 (UniProt Q69YN2)	0.9537 ± 0.0092	0.991 ± 0.027
UniProt Q5VW32 and related entries	1.01 ± 0.069	0.992 ± 0.042
PAXIP1 (UniProt Q6ZW49)	1.01 ± 0.031	1.03 ± 0.048
UniProt Q6P1N0 and related entries	0.991 ± 0.016	0.9781 ± 0.0094
PRPF38B (UniProt Q5VTL8)	1.01 ± 0.067	1.02 ± 0.047
ZFYVE16 (UniProt Q7Z3T8)	0.972 ± 0.022	0.993 ± 0.037
UniProt Q6P1A2 and related entries	0.997 ± 0.037	0.9972 ± 0.0066
SND1 (UniProt Q7KZF4)	0.99239 ± 0.00061	1.01 ± 0.019
NUDT18 (UniProt Q6ZVK8)	0.984 ± 0.011	1.01 ± 0.025
GLT8D1 (UniProt Q68CQ7)	1.025 ± 0.0057	1.012 ± 0.0043
UniProt Q7Z3J2 and related entries	0.986 ± 0.02	1.02 ± 0.056
UniProt Q6ZNW5	0.991 ± 0.026	0.984 ± 0.037

Target	NP40-soluble protein abundance (concentration: 0.1mM)	NP40-soluble protein abundance (concentration: 0.5mM)
CENPQ (UniProt Q7L2Z9)	1.02 ± 0.018	0.987 ± 0.05
UniProt Q6NW34 and related entries	0.978 ± 0.043	0.999 ± 0.016
UniProt Q7L5Y1 and related entries	1.005 ± 0.007	0.995 ± 0.046
UniProt Q6NUQ4 and related entries	0.992 ± 0.024	0.997 ± 0.035
OGFOD2 (UniProt Q6N063)	0.99 ± 0.076	0.943 ± 0.055
UniProt Q7Z2K8 and related entries	1.019 ± 0.01	0.924 ± 0.054
UniProt Q684P5-2|Q684P5-3|Q684P5	0.99 ± 0.011	0.978 ± 0.037
RPL7L1 (UniProt Q6DKI1)	0.99 ± 0.035	0.956 ± 0.038
GRAMD4 (UniProt Q6IC98)	0.994 ± 0.015	1.03 ± 0.036
SASS6 (UniProt Q6UVJ0)	0.994 ± 0.018	1.01 ± 0.035
RNF123 (UniProt Q5XPI4)	0.965 ± 0.017	0.967 ± 0.016
MICAL3 (UniProt Q7RTP6)	1 ± 0.035	0.989 ± 0.024
UniProt Q6P4A7 and related entries	1.001 ± 0.0085	0.9859 ± 0.0064
SPNS3 (UniProt Q6ZMD2)	1.014 ± 0.0042	0.999 ± 0.015
CTR9 (UniProt Q6PD62)	1.01 ± 0.027	1 ± 0.048
EDC4 (UniProt Q6P2E9)	0.982 ± 0.0099	1.01 ± 0.023
UniProt Q6UW63	0.998 ± 0.011	0.995 ± 0.032
CNNM4 (UniProt Q6P4Q7)	0.986 ± 0.044	0.984 ± 0.017
FDX2 (UniProt Q6P4F2)	0.96 ± 0.029	1 ± 0.019
UniProt Q7L2H7	1.01 ± 0.032	1.03 ± 0.05

Target	NP40-soluble protein abundance (concentration: 0.1mM)	NP40-soluble protein abundance (concentration: 0.5mM)
TTC27 (UniProt Q6P3X3)	1.02 ± 0.016	0.991 ± 0.055
UniProt Q5XUX1 and related entries	0.987 ± 0.016	1 ± 0.034
UniProt Q7Z412 and related entries	1.03 ± 0.023	1.03 ± 0.011
UniProt Q6P4R8 and related entries	1.03 ± 0.077	1.02 ± 0.058
CYFIP1 (UniProt Q7L576)	1.07 ± 0.074	1 ± 0.13
UniProt Q7L4P6 and related entries	1.01 ± 0.1	1.14 ± 0.23
UniProt Q6IA86 and related entries	1.05 ± 0.031	0.988 ± 0.11
UniProt Q5W0U4	0.9878 ± 0.0048	0.995 ± 0.032
UniProt Q5VZL5 and related entries	0.97 ± 0.026	1 ± 0.015
INTS5 (UniProt Q6P9B9)	1.03 ± 0.033	1.03 ± 0.024
UniProt Q5VW36 and related entries	1 ± 0.02	0.959 ± 0.04
UniProt Q5VVQ6 and related entries	0.978 ± 0.067	0.931 ± 0.043
UniProt Q7Z333 and related entries	1.01 ± 0.048	1.01 ± 0.05
UniProt Q6FIF0 and related entries	0.975 ± 0.022	0.999 ± 0.049
UniProt Q7Z2W9 and related entries	1.05 ± 0.016	1.03 ± 0.054
UniProt Q6SJ93 and related entries	0.972 ± 0.022	0.947 ± 0.015
UniProt Q68D10 and related entries	0.9796 ± 0.0022	1.02 ± 0.031
Q76L82 and related entries (UniProt Q8IXJ9+Q76L82)	0.978 ± 0.015	1 ± 0.024

Whole records, quoted from the list. Order of values: NP40-soluble protein abundance (concentration: 0.1mM)	NP40-soluble protein abundance (concentration: 0.5mM)
UniProt Q68D10 and related entries in the list: 0.9796 ± 0.0022	1.02 ± 0.031
Q76L82 and related entries (UniProt Q8IXJ9+Q76L82) in the list: 0.978 ± 0.015	1 ± 0.024
